In patent US11696956B2 (BicycleTx Limited, priority 2017, dated 2023):

Assay: general procedure: Fmoc solid-phase peptide synthesis; Rink Amide MBHA (0.4-[…]); DIC/HOAt
Details: whole synthesis
[1] = bicyclic, sequence written open

| Substance | final purity (method not given) [%] | isolated yield [%] | isolated mass (scale 1.11 g of resin) [mg] | final purity (method not given) [1] [%] | isolated yield [1] [%] | isolated mass (scale 8.0 g of resin, bicyclic, sequence written open) [mg] | isolated mass (scale 1.19 g of resin, bicyclic, sequence written open) [mg] |
| --- | --- | --- | --- | --- | --- | --- | --- |
| (β-Ala)-Sar10-A(D-Arg)DC(HyP)LVNPLCL(D-3,3-DPA)P(D-Asp)W(HArg)C | 97.91 | 7.3 | 120.0 | – | – | – | – |
| (β-Ala)-Sar10-A(HArg)D-Ci(HyP)LVNPLCiiLHP(D-Asp)W(HArg)Ciii | – | – | – | 99.2 | 16.3 | 2100 | – |
| A(HArg)DCPLVNPLCLHPGWTC | – | – | – | 95.05 | 16.8 | – | 189.9 |
